Laboratory results: PubChem BioAssay AID504808 (Drosophila RNAi Screening Center, 2011)
Test: 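Chromatin factors that keep E2F targets switched off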 (primary screen). Cell system: Drosophila S2 cells. Reagent: long dsRNA against Drosophila genes. Measurement: 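Dual luciferase plate measurements; E2F-specific signal taken as firefly over Renilla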. Scale: E2F firefly: higher = more E2F reporter activity; Renilla normaliser: higher = more normaliser reporter signal. Call rule: 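a knock-down counted as active when the firefly/Renilla E2F signal rose above 50%, a threshold chosen arbitrarily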.
In all, the deposit lists about 21,000 reagents; below is a random part of those that have a named target and a result. Over the whole deposit, 18 (0.084%) are marked active. 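Raw counts without plate normalisation, one of two replicates; the ratio scores behind the calls were not deposited.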 Reagents against one gene are numbered here. Not stated in the record: the amount of reagent, the time to read-out.

| gene | reagent | E2F firefly, rep 1 | Renilla normaliser, rep 1 | Call |
| --- | --- | --- | --- | --- |
| CG17147 | 1 | 1.24e5 | 5400 | inactive |
| ATPsynB (ATP synthase, subunit B) | 1 | 70689 | 3390 | inactive |
| Cyp313a3 (Cytochrome P450 313a3) | 1 | 1.52e5 | 6211 | inactive |
| Vps16A (Vacuolar protein sorting 16A) | 1 | 1.15e5 | 5485 | inactive |
| Or67d (Odorant receptor 67d) | 1 | 77214 | 2391 | inactive |
| CG16721 | 1 | 9203 | 788 | inactive |
| CG1602 | 1 | 1.47e5 | 5295 | inactive |
| CG3437 | 1 | 1.12e5 | 6548 | inactive |
| ben (bendless) | 1 | 8853 | 816 | inactive |
| ben (bendless) | 2 | 1.43e5 | 333 | inactive |
| Nca (Neurocalcin) | 1 | 1.27e5 | 5900 | inactive |
| CG5280 | 1 | 1.01e5 | 4447 | inactive |
| Fas3 (Fasciclin 3) | 1 | 1.21e5 | 5115 | inactive |
| Fas3 (Fasciclin 3) | 2 | 89796 | 4089 | inactive |
| ru (roughoid) | 1 | 87693 | 4020 | inactive |
| trol (terribly reduced optic lobes) | 1 | 79337 | 2276 | inactive |
| trol (terribly reduced optic lobes) | 2 | 85114 | 2404 | inactive |
| trol (terribly reduced optic lobes) | 3 | 1.24e5 | 6479 | inactive |
| trol (terribly reduced optic lobes) | 4 | 1.16e5 | 5694 | inactive |
| Droj2 (DnaJ-like-2) | 1 | 67330 | 3427 | inactive |
| Trf2 (TATA box binding protein-related factor 2) | 1 | 1.27e5 | 7392 | inactive |
| fs(1)h (female sterile (1) homeotic) | 1 | 66484 | 736 | inactive |
| lili (lilipod) | 1 | 70996 | 3591 | inactive |
| scaf (scarface) | 1 | 71084 | 3062 | inactive |
| Gasp | 1 | 63412 | 3185 | inactive |
| CG10793 | 1 | 1.13e5 | 5379 | inactive |
| Cyp6a9 (Cytochrome P450 6a9) | 1 | 1.15e5 | 4619 | inactive |
| Vha16-3 (Vacuolar H[+] ATPase 16kD subunit 3) | 1 | 1.26e5 | 6885 | inactive |
| Obp83cd (Odorant-binding protein 83cd) | 1 | 1.31e5 | 6330 | inactive |
| tum (tumbleweed) | 1 | 1.05e5 | 4186 | inactive |
| roq (roquin) | 1 | 71040 | 3587 | inactive |
| b (black) | 1 | 96793 | 3897 | inactive |
| AlaRS-m (Alanyl-tRNA synthetase, mitochondrial) | 1 | 80124 | 3397 | inactive |
| l(3)62Be (retired record) | 1 | 77762 | 3624 | inactive |
| Aprt (Adenine phosphoribosyltransferase) | 1 | 1.02e5 | 4164 | inactive |
| CG7139 | 1 | 68895 | 4311 | inactive |
| Sgt1 (suppressor-of-G2-allele-of-skp1) | 1 | 1.22e5 | 5544 | inactive |

Entries above whose gene name starts with R or r:
| gene | reagent | E2F firefly, rep 1 | Renilla normaliser, rep 1 | Call |
| --- | --- | --- | --- | --- |
| ru (roughoid) | 1 | 87693 | 4020 | inactive |
| roq (roquin) | 1 | 71040 | 3587 | inactive |

Continued:
| gene | reagent | E2F firefly, rep 1 | Renilla normaliser, rep 1 | Call |
| --- | --- | --- | --- | --- |
| CG1572 | 1 | 7900 | 780 | inactive |
| MsR1 (Myosuppressin receptor 1) | 1 | 1.09e5 | 4126 | inactive |
| CG31050 | 1 | 91104 | 2748 | inactive |
| eIF3g2 (eukaryotic translation initiation factor 3 subunit g2) | 1 | 1.15e5 | 7678 | inactive |
| Pex1 (Peroxin 1) | 1 | 74087 | 3635 | inactive |
| stil (stand still) | 1 | 2931 | 199 | inactive |
| wnd (wallenda) | 1 | 75924 | 3258 | inactive |
| wnd (wallenda) | 2 | 86509 | 3428 | inactive |
| CG12519 | 1 | 1.47e5 | 6131 | inactive |
| SCOT (Succinyl-CoA:3-ketoacid CoA transferase) | 1 | 74014 | 3569 | inactive |
| CG13640 | 1 | 98153 | 5400 | inactive |
| eEF1alpha2 (eukaryotic translation elongation factor 1 alpha 2) | 1 | 81301 | 2179 | inactive |
| eEF1alpha2 (eukaryotic translation elongation factor 1 alpha 2) | 2 | 1.27e5 | 6858 | inactive |
| Poc1 (Proteome of centrioles 1) | 1 | 81201 | 3928 | inactive |
| Gpo1 (Glycerophosphate oxidase 1) | 1 | 66939 | 3384 | inactive |
| RPA2 (Replication protein A2) | 1 | 81500 | 3287 | inactive |
| Cog8 (Component of oligomeric golgi complex 8) | 1 | 90494 | 5108 | inactive |
| kto (kohtalo) | 1 | 80133 | 3194 | inactive |
| CG30109 | 1 | 1.75e5 | 7799 | inactive |
| CG12824 | 1 | 1.48e5 | 4491 | inactive |
| Ag5r (Antigen 5-related) | 1 | 8094 | 832 | inactive |
| Arr1 (Arrestin 1) | 1 | 1.03e5 | 4601 | inactive |
| CG33269 | 1 | 90852 | 6079 | inactive |
| Brd8 (Bromodomain containing 8) | 1 | 2758 | 1140 | active |
| Ir52d (Ionotropic receptor 52d) | 1 | 94848 | 3928 | inactive |
| CG15239 | 1 | 1.27e5 | 5748 | inactive |
| Kmn1 (kinetochore Mis12-Ndc80 network component 1) | 1 | 1.49e5 | 8720 | inactive |
| lz (lozenge) | 1 | 1.21e5 | 5977 | inactive |
| Hsp83 (Heat shock protein 83) | 1 | 97087 | 4010 | inactive |
| CG8138 | 1 | 1.09e5 | 5262 | inactive |
| CG32726 | 1 | 82163 | 2419 | inactive |
| CG40498 | 1 | 1.77e5 | 6653 | inactive |
| CG11127 | 1 | 97535 | 3829 | inactive |
| CG30127 (retired record) | 1 | 1.56e5 | 5165 | inactive |
| CG30127 (retired record) | 2 | 1.35e5 | 5201 | inactive |
| CG30470 (retired record) | 1 | 97132 | 4386 | inactive |
| CG30470 (retired record) | 2 | 1.01e5 | 4731 | inactive |
| CG30470 (retired record) | 3 | 1.11e5 | 4500 | inactive |
| CG30470 (retired record) | 4 | 1.05e5 | 4688 | inactive |
| intr (intrepid) | 1 | 1888 | 792 | inactive |
| CG12011 | 1 | 94741 | 3516 | inactive |
| Polr1F (RNA polymerase I subunit F) | 1 | 1.04e5 | 4611 | inactive |
| CG11537 | 1 | 80978 | 3152 | inactive |
| Nup133 (Nucleoporin 133kD) | 1 | 60775 | 3270 | inactive |
| CG14005 | 1 | 99058 | 3979 | inactive |
| CSN1b (COP9 signalosome subunit 1b) | 1 | 69880 | 3290 | inactive |
| TwdlW (TweedleW) | 1 | 1.27e5 | 6304 | inactive |
